Assay results as given in paper PMC11645862.
Where a chain is given by its changes, count along the chain named. Construct, isoform or probe ends are uncertain for at least one entry. The comparison behind a weaker result is the experiment's own reference, which may not be listed here. Protein sequences can lack the tags named with them.

Tests used:
Experiment in all cases: BLI
[1] = biological target: T1, STK19 R207A (xl) (Xenopus laevis) (UniProt A0ABF7TX19); details: 500 nM STK19; BLI: ELB (10 mM HEPES pH 7.7, 50 mM KCl, 2.5 mM MgCl2, 250 mM sucrose) + 0.05% Tween-20, 5 mg/ml BSA, 30 C; recombinant protein; label: 5'-biotin on strand 1
T1 sequence (looked up, limits assumed): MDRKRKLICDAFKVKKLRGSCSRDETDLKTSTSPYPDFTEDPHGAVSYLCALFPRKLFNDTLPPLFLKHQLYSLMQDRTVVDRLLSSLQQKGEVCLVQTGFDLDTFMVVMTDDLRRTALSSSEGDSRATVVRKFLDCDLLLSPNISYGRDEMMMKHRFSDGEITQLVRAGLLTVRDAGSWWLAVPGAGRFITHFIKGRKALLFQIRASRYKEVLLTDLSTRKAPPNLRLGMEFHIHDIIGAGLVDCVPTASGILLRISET

[2] = biological target: T2, STK19 RR-AA (xl) R206A,R207A (Xenopus laevis) (UniProt A0ABF7TX19); details: 500 nM STK19, strongly impaired; BLI: ELB (10 mM HEPES pH 7.7, 50 mM KCl, 2.5 mM MgCl2, 250 mM sucrose) + 0.05% Tween-20, 5 mg/ml BSA, 30 C; recombinant …; label: 5'-biotin on strand 1
T2 sequence (looked up, limits assumed): T1 sequence (looked up, limits assumed) with R206A

[3] = biological target: T3, STK19 R206A (xl) (Xenopus laevis) (UniProt A0ABF7TX19); details: 500 nM STK19; BLI: ELB (10 mM HEPES pH 7.7, 50 mM KCl, 2.5 mM MgCl2, 250 mM sucrose) + 0.05% Tween-20, 5 mg/ml BSA, 30 C; recombinant protein; label: 5'-biotin on strand 1
T3 sequence (looked up, limits assumed): T1 sequence (looked up, limits assumed) with R206A, A207R

Measured: binding result

TATGGACAGCAAGC (double strand) [BLI 14-mer duplex (oTM626/oTM629)]
binds more weakly: all assays above
